# Assay results published in the supplement of paper PMC12889115.
# The list shows a part of the results. These are raw signals, not scaled to a control.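 First-pass screen: polymyxin B was added at a level that permeabilizes the Salmonella outer membrane while sparing the inner membrane. DMSO wells, with and without polymyxin B, defined maximum growth. Because plates differed from one another, each plate's data were ranked separately and the compounds with the lowest OD600 were carried forward as hits.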
# Tested on: Salmonella enterica serovar Typhimurium SL1344
# Assay: bacterial growth OD600 after 18 h with compound and polymyxin B; higher = more bacterial growth (less inhibition)
# Conditions: 50 µM, Mueller-Hinton broth
Compound,bacterial growth OD600 (polymyxin B 0.75 µg/mL),bacterial growth OD600 (polymyxin B 1 µg/mL)
CCN(CC)CC(O)COc1ccc(CN(C)Cc2ccccn2)cc1OC (centres undefined),0.808,–
COc1cccc(CCC(=O)NCC2Cc3cc(-c4ccnc(SC)n4)cc(Cl)c3O2)c1 (centres undefined),0.912,–
Cc1ncc2c(c1CNC(=O)c1ccccc1F)CCN(C(=O)Cc1c(F)ccc(F)c1F)C2,0.857,–
COc1ccc(C(=O)NC2CCCN(C3CCCCCC3)C2)cc1F (centres undefined),–,0.908
COc1ccc(CN2CCNC(=O)C2CC(=O)N2CCCCC2)c(C)c1C (centres undefined),–,0.955
Cc1cc(-c2nn(-c3ccccc3F)cc2CN(C)C2CCOCC2)c(C)s1,–,0.81
COc1ccc(CCNC2CCN(c3ccc(C(=O)NC(C)c4ccccc4)cc3)CC2)cc1 (centres undefined),0.81,–
NC(=O)CNC(=O)c1ccc2oc(CCCc3ccccc3)nc2c1,–,0.958
CCCCN(C)C(=O)C1CCCN(C2CCN(c3nc4ccccc4o3)CC2)C1 (centres undefined),0.767,–
COCCN1C(=O)CC(CC(=O)N2CC3CCCC2C3)(c2ccccc2OC)C1=O (centres undefined),0.804,–
COCCCN1C(=O)CC(CC(=O)N2CCCC(c3ccccc3)C2)(c2ccccc2OC)C1=O (centres undefined),0.056,–
CCOC(=O)N1CCC(NC(=O)C2CCC(=O)N(Cc3ccccc3F)C2)CC1 (centres undefined),–,0.961
CCOC(=O)C1(Cc2ccc(Cl)cc2)CCN(Cc2[nH]cnc2C)CC1,0.922,–
COC(c1ccccc1)c1nnc(CCC(=O)NCc2cccs2)o1 (centres undefined),–,0.843
c1ccc(-c2ccc(-c3n[nH]cc3CN3CCSCC3)cc2)cc1,–,0.501
Cc1cnc(C(=O)N2CCCCC2C(=O)Nc2ccc(-n3nc(C)cc3C)cc2)cn1 (centres undefined),–,0.974
CCOC(=O)C1(Cc2ccc(F)cc2F)CCCN(C(=O)c2cnn(CC)c2)C1 (centres undefined),–,0.871
O=C(C1CCCC1)N(CC1CCN(C2Cc3ccccc3C2)CC1)CC1CCCO1 (centres undefined),–,0.911
CCC1CN(C(=O)c2ccc(NCC3CC3)nc2)CCN1C(C)C (centres undefined),0.852,–

# One compound at a time, as listed above. Values in the order: bacterial growth OD600 (polymyxin B 0.75 µg/mL) | bacterial growth OD600 (polymyxin B 1 µg/mL)
# `COc1ccc(C(=O)NC2CCCN(C3CCCCCC3)C2)cc1F` (centres undefined) in the list: – | 0.908
# `COC(c1ccccc1)c1nnc(CCC(=O)NCc2cccs2)o1` (centres undefined) in the list: – | 0.843
